Laboratory results: the supplement of paper PMC12595434, “Development of retinoid nuclear receptor pathway antagonists through targeting aldehyde dehydrogenase 1A3” (iScience, 2025)
Some of the results follow. This is a noisy data set.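 Many melting curves are irregular; where none melted, Tm was taken as 64 °C.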

Protein sequences, listed by entry. Tags and fused reporters are not part of them. Lines headed by an entry give the natural chain unless they say otherwise; changes in a name come on top.
UniProt Q9BYG3: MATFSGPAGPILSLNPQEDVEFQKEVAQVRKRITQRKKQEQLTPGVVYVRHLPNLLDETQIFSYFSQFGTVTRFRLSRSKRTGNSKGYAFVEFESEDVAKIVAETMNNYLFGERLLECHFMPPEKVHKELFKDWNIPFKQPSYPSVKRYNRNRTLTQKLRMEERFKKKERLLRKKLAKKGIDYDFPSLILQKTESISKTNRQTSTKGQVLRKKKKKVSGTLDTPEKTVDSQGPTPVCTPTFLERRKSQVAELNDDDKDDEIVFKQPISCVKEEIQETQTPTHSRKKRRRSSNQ
UniProt Q9H0C8: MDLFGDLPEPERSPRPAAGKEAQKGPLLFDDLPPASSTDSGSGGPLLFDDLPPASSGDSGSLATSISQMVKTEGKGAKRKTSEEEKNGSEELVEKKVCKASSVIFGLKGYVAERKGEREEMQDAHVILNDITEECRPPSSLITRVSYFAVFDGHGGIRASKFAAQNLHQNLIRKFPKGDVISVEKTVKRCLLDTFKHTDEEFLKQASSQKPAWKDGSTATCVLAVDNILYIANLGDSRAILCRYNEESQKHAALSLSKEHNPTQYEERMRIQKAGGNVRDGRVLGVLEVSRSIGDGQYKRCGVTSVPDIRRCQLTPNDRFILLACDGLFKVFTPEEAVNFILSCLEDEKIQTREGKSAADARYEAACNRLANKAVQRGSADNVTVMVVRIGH
UniProt Q9H4A4: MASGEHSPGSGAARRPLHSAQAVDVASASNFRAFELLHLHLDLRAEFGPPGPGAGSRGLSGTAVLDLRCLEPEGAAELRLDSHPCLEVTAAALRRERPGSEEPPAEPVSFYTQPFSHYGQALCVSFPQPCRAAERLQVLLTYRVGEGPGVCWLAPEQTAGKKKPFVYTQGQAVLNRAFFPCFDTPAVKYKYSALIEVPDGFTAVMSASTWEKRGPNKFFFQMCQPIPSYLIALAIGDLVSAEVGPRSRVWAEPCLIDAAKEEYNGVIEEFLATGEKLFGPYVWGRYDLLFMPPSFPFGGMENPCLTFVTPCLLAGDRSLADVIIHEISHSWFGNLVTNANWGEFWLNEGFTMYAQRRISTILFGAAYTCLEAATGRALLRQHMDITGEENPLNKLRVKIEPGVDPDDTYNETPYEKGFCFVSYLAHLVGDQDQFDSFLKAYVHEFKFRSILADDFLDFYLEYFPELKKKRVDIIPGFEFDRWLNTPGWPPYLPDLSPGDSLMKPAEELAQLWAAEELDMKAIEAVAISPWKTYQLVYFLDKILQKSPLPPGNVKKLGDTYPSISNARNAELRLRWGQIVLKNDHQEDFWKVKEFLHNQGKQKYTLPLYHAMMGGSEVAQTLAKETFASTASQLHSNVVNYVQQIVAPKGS
UniProt Q9H6T3, whole entry: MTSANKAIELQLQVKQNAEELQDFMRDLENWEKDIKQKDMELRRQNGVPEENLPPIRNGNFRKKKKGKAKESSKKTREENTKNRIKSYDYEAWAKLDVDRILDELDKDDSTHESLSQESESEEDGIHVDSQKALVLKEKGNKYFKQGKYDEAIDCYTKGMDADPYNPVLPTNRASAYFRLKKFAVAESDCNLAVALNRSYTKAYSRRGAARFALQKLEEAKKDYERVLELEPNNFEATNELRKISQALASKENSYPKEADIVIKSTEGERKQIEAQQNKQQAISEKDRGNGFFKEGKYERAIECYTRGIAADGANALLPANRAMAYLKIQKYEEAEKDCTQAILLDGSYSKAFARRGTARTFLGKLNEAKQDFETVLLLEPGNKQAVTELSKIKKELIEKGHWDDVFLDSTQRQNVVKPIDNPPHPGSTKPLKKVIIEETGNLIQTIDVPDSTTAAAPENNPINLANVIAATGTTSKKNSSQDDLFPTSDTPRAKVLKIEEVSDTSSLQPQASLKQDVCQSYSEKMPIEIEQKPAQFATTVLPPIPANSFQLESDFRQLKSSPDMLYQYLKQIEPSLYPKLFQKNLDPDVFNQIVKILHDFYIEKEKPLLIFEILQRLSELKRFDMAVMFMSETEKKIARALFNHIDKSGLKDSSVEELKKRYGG
UniProt Q9BZ29: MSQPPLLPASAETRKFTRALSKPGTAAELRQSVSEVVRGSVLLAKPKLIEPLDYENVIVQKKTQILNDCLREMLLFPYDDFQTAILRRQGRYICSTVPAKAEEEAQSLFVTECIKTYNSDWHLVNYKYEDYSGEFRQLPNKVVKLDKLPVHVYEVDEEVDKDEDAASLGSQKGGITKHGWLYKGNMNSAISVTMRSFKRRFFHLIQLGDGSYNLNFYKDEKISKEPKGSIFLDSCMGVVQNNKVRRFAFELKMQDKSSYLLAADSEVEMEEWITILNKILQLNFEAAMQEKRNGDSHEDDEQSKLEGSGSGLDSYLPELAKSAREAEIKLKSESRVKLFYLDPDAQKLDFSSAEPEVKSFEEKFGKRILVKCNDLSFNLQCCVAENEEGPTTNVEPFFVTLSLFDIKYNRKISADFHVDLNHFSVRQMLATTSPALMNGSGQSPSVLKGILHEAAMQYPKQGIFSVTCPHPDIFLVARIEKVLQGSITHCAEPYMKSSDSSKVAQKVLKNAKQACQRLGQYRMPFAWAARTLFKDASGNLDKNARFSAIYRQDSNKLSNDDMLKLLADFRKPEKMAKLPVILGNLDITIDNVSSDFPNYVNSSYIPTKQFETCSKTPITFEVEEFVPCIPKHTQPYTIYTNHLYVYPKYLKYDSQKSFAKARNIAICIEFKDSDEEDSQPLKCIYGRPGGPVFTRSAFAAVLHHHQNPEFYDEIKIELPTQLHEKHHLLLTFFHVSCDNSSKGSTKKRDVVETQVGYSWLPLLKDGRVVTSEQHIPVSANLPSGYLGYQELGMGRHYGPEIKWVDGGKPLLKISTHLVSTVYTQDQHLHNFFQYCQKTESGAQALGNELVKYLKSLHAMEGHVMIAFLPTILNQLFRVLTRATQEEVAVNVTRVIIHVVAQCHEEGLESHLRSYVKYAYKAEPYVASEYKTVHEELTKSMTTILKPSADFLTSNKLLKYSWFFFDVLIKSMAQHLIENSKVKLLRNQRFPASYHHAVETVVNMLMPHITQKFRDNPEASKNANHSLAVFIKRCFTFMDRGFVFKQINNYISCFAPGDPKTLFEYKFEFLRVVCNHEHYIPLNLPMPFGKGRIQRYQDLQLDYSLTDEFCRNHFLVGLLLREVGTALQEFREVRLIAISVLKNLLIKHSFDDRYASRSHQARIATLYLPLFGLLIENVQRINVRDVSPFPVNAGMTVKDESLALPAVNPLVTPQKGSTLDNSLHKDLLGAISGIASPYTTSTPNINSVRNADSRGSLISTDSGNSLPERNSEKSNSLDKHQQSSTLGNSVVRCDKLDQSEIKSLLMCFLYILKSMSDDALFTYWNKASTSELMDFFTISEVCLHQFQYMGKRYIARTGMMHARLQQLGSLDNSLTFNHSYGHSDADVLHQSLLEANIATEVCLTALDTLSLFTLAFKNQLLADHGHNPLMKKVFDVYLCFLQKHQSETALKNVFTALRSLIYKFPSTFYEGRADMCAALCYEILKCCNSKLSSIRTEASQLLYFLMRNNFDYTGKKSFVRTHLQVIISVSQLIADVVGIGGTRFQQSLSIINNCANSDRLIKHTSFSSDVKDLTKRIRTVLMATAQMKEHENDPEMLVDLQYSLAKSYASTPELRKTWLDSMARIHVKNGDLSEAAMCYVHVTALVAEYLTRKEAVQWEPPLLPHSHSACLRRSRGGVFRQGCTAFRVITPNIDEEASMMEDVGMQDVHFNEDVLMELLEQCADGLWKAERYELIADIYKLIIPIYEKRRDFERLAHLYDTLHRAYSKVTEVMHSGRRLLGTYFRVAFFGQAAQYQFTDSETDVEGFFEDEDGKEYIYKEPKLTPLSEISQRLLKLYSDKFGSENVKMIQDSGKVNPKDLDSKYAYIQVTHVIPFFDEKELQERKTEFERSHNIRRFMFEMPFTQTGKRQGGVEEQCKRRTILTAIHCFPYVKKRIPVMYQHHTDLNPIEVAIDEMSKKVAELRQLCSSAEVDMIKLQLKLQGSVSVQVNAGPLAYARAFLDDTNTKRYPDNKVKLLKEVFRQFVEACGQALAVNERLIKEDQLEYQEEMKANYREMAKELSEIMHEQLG
UniProt Q9H299: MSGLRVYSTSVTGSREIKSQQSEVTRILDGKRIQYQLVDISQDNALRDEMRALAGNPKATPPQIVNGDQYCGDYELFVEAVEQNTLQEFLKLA
UniProt Q9H8H0: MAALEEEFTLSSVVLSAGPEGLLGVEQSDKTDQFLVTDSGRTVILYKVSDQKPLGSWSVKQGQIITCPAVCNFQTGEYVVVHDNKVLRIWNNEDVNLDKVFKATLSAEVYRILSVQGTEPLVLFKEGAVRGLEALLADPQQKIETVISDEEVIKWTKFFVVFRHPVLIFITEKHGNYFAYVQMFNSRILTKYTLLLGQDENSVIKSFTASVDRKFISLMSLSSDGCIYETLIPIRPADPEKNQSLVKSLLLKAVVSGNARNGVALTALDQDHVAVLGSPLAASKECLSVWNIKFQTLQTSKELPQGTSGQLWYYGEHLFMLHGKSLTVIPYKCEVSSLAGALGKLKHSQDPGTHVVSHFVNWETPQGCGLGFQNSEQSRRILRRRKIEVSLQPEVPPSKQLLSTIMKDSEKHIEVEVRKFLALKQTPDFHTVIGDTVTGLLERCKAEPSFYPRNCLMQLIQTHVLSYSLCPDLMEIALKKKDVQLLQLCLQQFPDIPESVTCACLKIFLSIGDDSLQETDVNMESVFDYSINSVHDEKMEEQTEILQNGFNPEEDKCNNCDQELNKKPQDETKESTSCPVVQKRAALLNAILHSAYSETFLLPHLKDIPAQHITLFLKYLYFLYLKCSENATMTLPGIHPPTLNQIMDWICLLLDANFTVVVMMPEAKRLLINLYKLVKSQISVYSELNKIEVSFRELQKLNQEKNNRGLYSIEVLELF
UniProt Q9H1K0: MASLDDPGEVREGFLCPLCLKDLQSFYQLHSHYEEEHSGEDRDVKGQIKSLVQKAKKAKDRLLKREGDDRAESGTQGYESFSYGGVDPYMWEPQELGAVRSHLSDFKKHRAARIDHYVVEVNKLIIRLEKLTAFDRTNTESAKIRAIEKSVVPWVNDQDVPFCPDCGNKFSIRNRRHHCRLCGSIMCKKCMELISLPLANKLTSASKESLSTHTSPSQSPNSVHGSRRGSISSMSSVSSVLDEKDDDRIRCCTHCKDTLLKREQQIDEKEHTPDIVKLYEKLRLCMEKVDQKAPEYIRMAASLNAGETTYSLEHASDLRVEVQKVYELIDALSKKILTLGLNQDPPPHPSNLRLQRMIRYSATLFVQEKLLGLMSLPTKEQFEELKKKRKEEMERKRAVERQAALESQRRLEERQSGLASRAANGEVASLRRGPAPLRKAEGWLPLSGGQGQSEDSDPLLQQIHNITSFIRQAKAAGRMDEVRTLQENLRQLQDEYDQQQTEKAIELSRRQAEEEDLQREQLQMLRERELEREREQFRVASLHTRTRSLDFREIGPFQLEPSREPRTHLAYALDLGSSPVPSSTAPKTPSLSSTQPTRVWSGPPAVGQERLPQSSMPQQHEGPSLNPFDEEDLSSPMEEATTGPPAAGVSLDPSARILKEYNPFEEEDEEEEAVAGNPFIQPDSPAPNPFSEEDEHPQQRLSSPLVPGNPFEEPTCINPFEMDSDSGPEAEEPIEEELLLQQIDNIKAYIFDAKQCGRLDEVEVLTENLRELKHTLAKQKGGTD
UniProt Q9BZX2: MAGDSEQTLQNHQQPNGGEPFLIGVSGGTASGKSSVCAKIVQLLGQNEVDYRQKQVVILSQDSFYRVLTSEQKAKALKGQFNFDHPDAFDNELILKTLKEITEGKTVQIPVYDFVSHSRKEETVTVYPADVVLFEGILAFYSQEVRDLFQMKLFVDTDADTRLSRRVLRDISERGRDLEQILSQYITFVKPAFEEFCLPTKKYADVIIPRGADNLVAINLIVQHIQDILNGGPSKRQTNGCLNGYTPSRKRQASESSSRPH
UniProt Q9H008: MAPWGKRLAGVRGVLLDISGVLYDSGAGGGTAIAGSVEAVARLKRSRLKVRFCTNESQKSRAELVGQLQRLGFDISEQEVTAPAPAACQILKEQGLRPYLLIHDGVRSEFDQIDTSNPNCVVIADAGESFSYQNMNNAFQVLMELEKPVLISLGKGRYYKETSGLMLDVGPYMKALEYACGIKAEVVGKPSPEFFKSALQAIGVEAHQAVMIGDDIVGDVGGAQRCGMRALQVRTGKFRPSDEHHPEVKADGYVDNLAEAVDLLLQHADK
UniProt Q9GZN7, whole entry: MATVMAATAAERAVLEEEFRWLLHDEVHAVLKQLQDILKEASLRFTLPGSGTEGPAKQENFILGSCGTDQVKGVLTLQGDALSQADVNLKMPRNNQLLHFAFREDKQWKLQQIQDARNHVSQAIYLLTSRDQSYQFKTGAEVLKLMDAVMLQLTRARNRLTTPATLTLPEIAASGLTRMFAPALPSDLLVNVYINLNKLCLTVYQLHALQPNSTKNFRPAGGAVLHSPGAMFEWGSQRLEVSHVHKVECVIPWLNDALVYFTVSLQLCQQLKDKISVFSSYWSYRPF

compound: CCc1cnccc1C(=O)Nc1cc2c(cc1F)NC(=O)CC2; experiment: melting temperature shift (DMSO Tm minus MBE1-treated Tm) in cellular thermal proteome profiling; higher = less thermal stabilization by MBE1 (negative = stabilized by MBE1); details: A375; MBE1 concentration: 100 nM

Target	melting temperature shift
UBA5 (UniProt Q9GZZ9)	-0.49 °C
ASCC2 (UniProt Q9H1I8)	-0.55 °C
UniProt Q9H6S1	0.259 °C
NAT10 (UniProt Q9H0A0)	-0.301 °C
RMND5A (UniProt Q9H871)	1.01 °C
BRD9 (UniProt Q9H8M2)	-0.34 °C
TFB2M (UniProt Q9H5Q4)	0.293 °C
LSG1 (UniProt Q9H089)	-0.494 °C
NIFK (UniProt Q9BYG3)	-0.25 °C
CLPB (UniProt Q9H078)	-0.483 °C
ILKAP (UniProt Q9H0C8)	-0.0047 °C
RNPEP (UniProt Q9H4A4)	-0.215 °C
TOLLIP (UniProt Q9H0E2)	-0.287 °C
TDRD3 (UniProt Q9H7E2)	1.04 °C
RPAP3 (UniProt Q9H6T3)	1 °C
DOCK9 (UniProt Q9BZ29)	-1.29 °C
CNNM2 (UniProt Q9H8M5)	0.797 °C
SH3BGRL3 (UniProt Q9H299)	0.678 °C
TUT1 (UniProt Q9H6E5)	-0.0705 °C

Target	melting temperature shift
MRPL1 (UniProt Q9BYD6)	-0.0047 °C
C11ORF68 (UniProt Q9H3H3)	-0.617 °C
SLIRP (UniProt Q9GZT3)	-0.327 °C
POMK (UniProt Q9H5K3)	-3 °C
UniProt Q9BZF3	-0.395 °C
UniProt Q9H5Z1	-0.936 °C
NT5DC2 (UniProt Q9H857)	-1.31 °C
POLR3F (UniProt Q9H1D9)	-0.724 °C
NOL11 (UniProt Q9H8H0)	-0.88 °C
RBSN (UniProt Q9H1K0)	-0.895 °C
UniProt Q9H019	1.1 °C
MAGT1 (UniProt Q9H0U3)	-0.577 °C
SMG9 (UniProt Q9H0W8)	-0.311 °C
PARL (UniProt Q9H300)	0.171 °C
UCK2 (UniProt Q9BZX2)	-1.31 °C
LHPP (UniProt Q9H008)	-2.9 °C
UniProt Q9H0H0	0.214 °C
UniProt Q9GZN7	-0.72 °C

same assay, conditions: A375; MBE1 concentration: 1 uM

Target	melting temperature shift
UBA5 (UniProt Q9GZZ9)	0.235 °C
ASCC2 (UniProt Q9H1I8)	-0.212 °C
UniProt Q9H6S1	-0.0565 °C
NAT10 (UniProt Q9H0A0)	0.047 °C
RMND5A (UniProt Q9H871)	0.434 °C
BRD9 (UniProt Q9H8M2)	-0.365 °C
TFB2M (UniProt Q9H5Q4)	-0.0916 °C
LSG1 (UniProt Q9H089)	-0.447 °C
NIFK (UniProt Q9BYG3)	0.501 °C
CLPB (UniProt Q9H078)	0.475 °C
ILKAP (UniProt Q9H0C8)	1.84 °C
RNPEP (UniProt Q9H4A4)	0.0427 °C
TOLLIP (UniProt Q9H0E2)	0.288 °C
TDRD3 (UniProt Q9H7E2)	-0.0305 °C
RPAP3 (UniProt Q9H6T3)	0.458 °C
DOCK9 (UniProt Q9BZ29)	-0.788 °C
CNNM2 (UniProt Q9H8M5)	0.194 °C
SH3BGRL3 (UniProt Q9H299)	0.635 °C
TUT1 (UniProt Q9H6E5)	0.308 °C

Target	melting temperature shift
MRPL1 (UniProt Q9BYD6)	0.282 °C
C11ORF68 (UniProt Q9H3H3)	0.55 °C
SLIRP (UniProt Q9GZT3)	-0.423 °C
POMK (UniProt Q9H5K3)	0.208 °C
UniProt Q9BZF3	-0.0612 °C
UniProt Q9H5Z1	0.442 °C
NT5DC2 (UniProt Q9H857)	-0.154 °C
POLR3F (UniProt Q9H1D9)	-1.13 °C
NOL11 (UniProt Q9H8H0)	0.0671 °C
RBSN (UniProt Q9H1K0)	-0.885 °C
UniProt Q9H019	0.953 °C
MAGT1 (UniProt Q9H0U3)	0.55 °C
SMG9 (UniProt Q9H0W8)	-0.82 °C
PARL (UniProt Q9H300)	1.52 °C
UCK2 (UniProt Q9BZX2)	-1.24 °C
LHPP (UniProt Q9H008)	0.354 °C
UniProt Q9H0H0	-0.812 °C
UniProt Q9GZN7	-0.757 °C
